Source: publication PMC9366350
Construct, isoform or probe ends are uncertain for at least one entry.

Tested on: GST-EbMYBP1 (Erigeron breviscapus)
Experiment: EMSA
Settings: EMSA with 5' 6-FAM probes and unlabeled competitors; pH and temperature not stated; recombinant protein; protein details: GST (pGEX-4T-1); label: FAM (5' 6-FAM/FITC)

GATCTTGAGAAGTAGGTAGCTAGCTAATTATTG (double strand) [pNtCHS probe]
binding result: binds

GAAAAAGTGAAGTTTGGTAGGTAGTATTAATGAA (double strand) [pNtFLS2 probe]
binding result: binds

CAGGGTTAAAGTTAGTTGTAAGGAGAGG (double strand) [pNtF3H probe]
binding result: binds

CCTCTCGCTCTACCTAACTACAAATTAT (double strand) [pNtCHI probe]
binding result: binds
